PubChem BioAssay AID493246 – Drosophila RNAi Screening Center, 2011
Screen: 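Identify essential fly genes by loss of cell viability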 (primary screen). Cells: Drosophila Kc and S2R+ cells. Reagent: long dsRNA against Drosophila genes. Measurement: 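Raw, unnormalised count of remaining cells in each well; per-plate z-scores of cell number underlie the calls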. Direction: Kc cell number and S2R+ cell number: higher = more cells remaining. Active means: 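Active when the per-plate z-score of cell number is 3 or more in the direction of fewer cells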.
The deposit covers about 21,000 reagents; shown is an unselected part of those with a known target gene and a result. In the full data, 429 (2%) are marked active. 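Values are raw and not normalised between plates; calls rest on per-plate z-scores that were not deposited.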 A number with no mark means an inactive call. Not given: the amount of reagent, the time to read-out.

no.	gene	dsRNA	Kc cell number, rep 1	Kc cell number, rep 2	S2R+ cell number, rep 1	S2R+ cell number, rep 2
1	tun (tungus)	DRSC05592	1.56e6	1.52e6	1.09e6	1.24e6
2	tun (tungus)	DRSC07127	1.41e6	1.46e6	1.10e6	1.14e6
3	Kr-h1 (Kruppel homolog 1)	DRSC00908	1.45e6	1.38e6	1.07e6	1.22e6
4	Kr-h1 (Kruppel homolog 1)	DRSC03355	1.44e6	1.38e6	5.72e5	7.66e5
5	nerfin-1 (nervous fingers 1)	DRSC08729	1.60e6	1.39e6	8.76e5	1.16e6
6	CG2209	DRSC19843	1.56e6	1.58e6	1.02e6	1.17e6
7	Hr78 (Hormone-receptor-like in 78)	DRSC11866	1.47e6	1.58e6	1.20e6	1.25e6
8	CG13991	DRSC02323	1.71e6	1.78e6	1.20e6	1.35e6
9	boss (bride of sevenless)	DRSC16916	1.40e6	1.43e6	9.65e5	1.04e6
10	sqz (squeeze)	DRSC16980	1.36e6	1.35e6	1.07e6	1.14e6
11	ms(3)K81 (male sterile (3) K81)	DRSC14746	1.65e6	1.71e6	1.02e6	1.14e6
12	CG12640	DRSC17847	1.60e6	1.64e6	9.74e5	1.13e6
13	St4 (Sulfotransferase 4)	DRSC07008	1.60e6	1.68e6	1.28e6	1.46e6
14	CG13064	DRSC09947	1.39e6	1.54e6	1.34e6	1.44e6
15	CG2147	DRSC18211	5.82e5		8.74e5	
16	epsilonTry (epsilonTrypsin)	DRSC07611	1.60e6	1.64e6	1.37e6	1.46e6
17	CG7695	DRSC16289	1.21e6	1.19e6	1.12e6	1.19e6
18	stmA (stambha A)	DRSC05120	1.39e6	1.48e6	9.78e5	1.08e6
19	stmA (stambha A)	DRSC07593	1.42e6	1.65e6	1.08e6	1.08e6
20	Eig71Ei	DRSC11156	1.33e6	1.37e6	1.18e6	1.33e6
21	Droj2 (DnaJ-like-2)	DRSC16450	1.54e6	1.68e6	1.28e6	1.39e6
22	CG34305	DRSC11995	1.51e6	1.68e6	1.21e6	1.41e6
23	Trf5 (TBP-related factor 5)	DRSC00412	1.87e6	1.85e6	1.19e6	1.27e6
24	agt (O-6-alkylguanine-DNA alkyltransferase)	DRSC12611	1.36e6	1.48e6	1.27e6	1.36e6
25	Cad74A (Cadherin 74A)	DRSC10636	1.56e6	1.44e6	1.27e6	1.39e6
26	Ype (Yippee)	DRSC20301	6.28e5		9.81e5	
27	RpS12 (Ribosomal protein S12)	DRSC11270	1.05e6	1.16e6	9.31e5	8.13e5
28	CG9689	DRSC18440	4.80e5		9.35e5	
29	thoc7	DRSC08512	1.31e6	1.36e6	1.23e6	1.29e6
30	CG7506	DRSC10860	1.60e6	1.68e6	1.28e6	1.24e6
31	mRpS31 (mitochondrial ribosomal protein S31)	DRSC10556	1.87e6	1.93e6	1.22e6	1.37e6
32	RhoGEF3 (Rho guanine nucleotide exchange factor 3)	DRSC08351	1.46e6	1.30e6	1.04e6	1.24e6
33	RhoGEF3 (Rho guanine nucleotide exchange factor 3)	DRSC08352	1.31e6	1.29e6	1.07e6	1.25e6
34	CG11664	DRSC18650	1.52e6	1.47e6	1.04e6	1.12e6
35	kay (kayak)	DRSC13962	1.05e6	1.60e6	1.07e6	1.15e6
36	kay (kayak)	DRSC15048	1.65e6 (active)	1.66e6	7.20e5	7.24e5
37	kay (kayak)	DRSC16977	5.78e5		7.79e5	
38	yps (ypsilon schachtel)	DRSC11411	1.24e6	1.30e6	1.32e6	1.38e6
39	CG32266	DRSC08062	1.41e6	1.37e6	1.02e6	1.15e6
40	CG31013	DRSC16542	1.41e6	1.41e6	9.97e5	1.08e6
41	CG6800	DRSC16119	1.44e6	1.39e6	1.12e6	1.23e6
42	insc (inscuteable)	DRSC04695	1.66e6	1.73e6	1.27e6	3.23e5
43	CG42258	DRSC19741	1.55e6	1.40e6	1.11e6	1.20e6
44	CG42258	DRSC19783	1.48e6	1.47e6	9.55e5	1.10e6
45	CG30099	DRSC07039	1.54e6	1.59e6	1.09e6	1.25e6
46	CG14818	DRSC18548	1.52e6	1.51e6	1.05e6	1.10e6
47	CG13068	DRSC09951	1.51e6	1.72e6	1.33e6	1.47e6
48	CG14301	DRSC14780	1.25e6	1.19e6	1.15e6	1.25e6
49	CNT1 (Concentrative nucleoside transporter 1)	DRSC06082	1.49e6	1.53e6	1.27e6	1.30e6
50	CG15252	DRSC17981	1.63e6	1.49e6	1.03e6	1.18e6
51	crq (croquemort)	DRSC00810	1.46e6	1.52e6	1.04e6	1.20e6
52	CG31038	DRSC15051	4.61e5		8.19e5	
53	CG31038	DRSC16326	1.79e6	1.83e6	1.15e6	1.23e6
54	CG31038	DRSC16327	1.57e6	1.64e6	1.05e6	1.13e6
55	eIF3k (eukaryotic translation initiation factor 3 subunit k)	DRSC04056	1.09e6	1.08e6	9.73e5	8.83e5
56	Cngl (Cyclic nucleotide-gated ion channel-like)	DRSC20318	1.52e6	1.45e6	9.78e5	1.06e6
57	Pex16 (Peroxin 16)	DRSC11750	1.50e6	1.50e6	1.35e6	1.42e6
58	p (pink)	DRSC16560	1.26e6	1.43e6	1.28e6	1.32e6
59	Wnt4 (Wnt oncogene analog 4)	DRSC00976	1.33e6 (active)	1.44e6	6.92e5	8.17e5
60	Wnt4 (Wnt oncogene analog 4)	DRSC03477	1.54e6	1.48e6	1.23e6	1.40e6
61	Rai1 (Rat1 Interacting Protein 1)	DRSC20157	1.45e6	1.46e6	1.05e6	1.14e6
62	Pc (Polycomb)	DRSC11873	1.46e6	1.57e6	1.13e6	1.25e6
63	Neto (Neuropilin and tolloid-like)	DRSC19503	6.85e5		1.03e6	
64	Neto (Neuropilin and tolloid-like)	DRSC19716	1.60e6	1.61e6	1.00e6	1.17e6
65	Neto (Neuropilin and tolloid-like)	DRSC19717	1.63e6	1.59e6	1.12e6	1.25e6
66	ValRS (Valyl-tRNA synthetase)	DRSC06864	1.20e6	1.26e6	9.46e5	9.82e5
67	CG15136	DRSC02436	1.48e6	1.54e6	1.21e6	1.40e6
68	Atg18a (Autophagy-related 18a)	DRSC10943	1.26e6	1.36e6	1.35e6	1.31e6
69	CG12853	DRSC06193	1.53e6	1.58e6	1.15e6	1.34e6
70	Osbp (Oxysterol binding protein)	DRSC16779	1.65e6	1.64e6	1.30e6	1.34e6
71	CG30495	DRSC06703	1.67e6	1.72e6	1.39e6	1.59e6
72	MAN1	DRSC04342	1.31e6	1.39e6	1.09e6	1.17e6
73	CG8509	DRSC20109	5.87e5		7.77e5	
74	hob (hobbit)	DRSC08426	1.42e6	1.44e6	1.08e6	1.02e6
75	pncr004:X (retired record)	DRSC19295	1.30e6	1.47e6	1.06e6	1.17e6

8 entries from above in another layout:
{"gene":"sqz (squeeze)","dsRNA":"DRSC16980","Kc cell number, rep 1":1.36e6,"Kc cell number, rep 2":1.35e6,"S2R+ cell number, rep 1":1.07e6,"S2R+ cell number, rep 2":1.14e6}
{"gene":"ms(3)K81 (male sterile (3) K81)","dsRNA":"DRSC14746","Kc cell number, rep 1":1.65e6,"Kc cell number, rep 2":1.71e6,"S2R+ cell number, rep 1":1.02e6,"S2R+ cell number, rep 2":1.14e6}
{"gene":"CG12640","dsRNA":"DRSC17847","Kc cell number, rep 1":1.60e6,"Kc cell number, rep 2":1.64e6,"S2R+ cell number, rep 1":9.74e5,"S2R+ cell number, rep 2":1.13e6}
{"gene":"St4 (Sulfotransferase 4)","dsRNA":"DRSC07008","Kc cell number, rep 1":1.60e6,"Kc cell number, rep 2":1.68e6,"S2R+ cell number, rep 1":1.28e6,"S2R+ cell number, rep 2":1.46e6}
{"gene":"CG13064","dsRNA":"DRSC09947","Kc cell number, rep 1":1.39e6,"Kc cell number, rep 2":1.54e6,"S2R+ cell number, rep 1":1.34e6,"S2R+ cell number, rep 2":1.44e6}
{"gene":"CG2147","dsRNA":"DRSC18211","Kc cell number, rep 1":5.82e5,"S2R+ cell number, rep 1":8.74e5}
{"gene":"epsilonTry (epsilonTrypsin)","dsRNA":"DRSC07611","Kc cell number, rep 1":1.60e6,"Kc cell number, rep 2":1.64e6,"S2R+ cell number, rep 1":1.37e6,"S2R+ cell number, rep 2":1.46e6}
{"gene":"CG7695","dsRNA":"DRSC16289","Kc cell number, rep 1":1.21e6,"Kc cell number, rep 2":1.19e6,"S2R+ cell number, rep 1":1.12e6,"S2R+ cell number, rep 2":1.19e6}
